This is an account of results in PubChem BioAssay AID1487 (National Center for Advancing Translational Sciences (NCATS), 2009).

This is one part of the list. These are further read-outs of the screen, such as a control signal, another cell line or another target. No call is given for them. Compounds called inactive in the main read-out are mostly missing here. Potencies come from curve fits of mixed quality, noted in brackets.

The experiment is described as follows: qHTS Assay for Modulators of Lamin A Splicing. To be noted: HeLa LMNA splicing GFP/RFP minigene ratio, 48 h. An outline of the steps: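 Read-out is the ratio of GFP to DsRed2 object intensity, acquired by 488 nm laser-scanning cytometry on HeLa lamin A-EGFP minigene reporter cells. Compound incubation 48 hrs at 37 °C in Opti-MEM with 2% FBS; DMSO 0.5% final.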

The mark [1] stands for this setting: measured here: GFP splicing reporter channel.
Where [2] appears, read: measured here: RFP viability control channel.

For the compound `O=Cc1s/c(=N\S(=O)(=O)c2ccccc2)n(CCCCl)c1Cl`, the AC50 is 0.355 µM [falling, full curve, poor fit] under setting [1] and 12.6 µM [falling, partial curve] under setting [2].
On to `COc1ccc(Br)cc1/C=N/NC(=O)c1cc(OC)c(OC)c(OC)c1`, for which the half-maximal activity concentration (AC50) under setting [2] is 10 µM [rising, partial curve, poor fit].
For `Cc1ccc(-c2cccc(CN3CCN(C4CCN(C(C)C)CC4)C(CCO)C3)c2)o1` (stereo not given), the AC50 under setting [1] is 25.1 µM [falling, partial curve, poor fit].
Take `Cc1nn(Cc2ccc(C(=O)N3c4ccc(F)cc4CCC3C)o2)c(C)c1Br` (stereo not given): the concentration at half-maximal activity (AC50) under setting [2] is 20 µM [rising, single point].
With `CC1(C)CC(=O)c2c(Cc3ccccc3)noc2C1`, the AC50 is 7.08 µM [falling, full curve, poor fit] under setting [1] and 6.31 µM [falling, full curve, poor fit] under setting [2].
For `O=C(COC(=O)c1sc2cc(Cl)ccc2c1Cl)Nc1ncc(Cl)cc1Cl`, the half-maximal activity concentration (AC50) under setting [1] is 31.6 µM [rising, single point].
On to `CCOC(=O)/C(C#N)=C/c1c(OCC)n(CC)c2ccccc12`, for which the AC50 under setting [2] is 25.1 µM [rising, single point].
On to `Cc1oc(-c2ccc(Cl)cc2)nc1Cn1c(=O)cc(C)c2c(C)nn(-c3cccc(F)c3)c21`, for which the concentration at half-maximal activity (AC50) by setting is: under setting [1], 0.00447 µM [falling, full curve]; under setting [2], 0.00501 µM [falling, full curve, poor fit].
As to `CCn1ncc(C2=NOC(C(=O)Nc3cnn(C45CC6CC(CC(C6)C4)C5)c3)C2)c1C` (stereo not given), the half-maximal activity concentration (AC50) under setting [1] is 5.62 µM [rising, partial curve] and the AC50 under setting [2] is 15.8 µM [rising, partial curve].
Consider `N#CC1=C(N)Oc2cc(Nc3ccccc3)ccc2C1c1ccncc1` (stereo not given), for which the half-maximal activity concentration (AC50) is 15.8 µM [falling, single point] under setting [1] and 35.5 µM [falling, single point] under setting [2].
For the compound `COc1ccc(NC(=O)C(=O)NCC(c2ccc3c(c2)OCO3)N2CCN(C)CC2)cc1` (stereo not given), the AC50 under setting [1] was 0.0355 µM [falling, full curve, poor fit] and the half-maximal activity concentration (AC50) under setting [2] was 0.0562 µM [falling, full curve, poor fit].
With `O=C1N=C(O)CN1/N=C\c1ccc(-c2ccc([N+](=O)[O-])cc2)o1`, the AC50 under setting [1] is 0.0708 µM [falling, full curve, poor fit] and the AC50 under setting [2] is 0.0631 µM [falling, full curve, poor fit].
For the compound `COc1ccc(OC)c(CNC(=O)CCCc2cn(C)c3ccccc23)c1`, the AC50 reads like this: under setting [1], 14.1 µM [rising, partial curve, poor fit]; under setting [2], 14.1 µM [rising, partial curve, poor fit].
`Cn1c(CSc2nc3ccccc3s2)nc2ccccc21`: under setting [2], the half-maximal activity concentration (AC50) is 15.8 µM [rising, partial curve].
`O=C(NCc1ccccn1)c1cc(S(=O)(=O)N2CCN(c3ccccc3)CC2)ccc1Cl`: the concentration at half-maximal activity (AC50) runs as follows: under setting [1], 11.2 µM [rising, single point]; under setting [2], 20 µM [rising, single point].
Turning to `CCCCCCC(=O)N(O)C1CC(=O)N(c2ccc(Br)cc2)C1=O` (stereo not given), under setting [2], the AC50 is 12.6 µM [rising, partial curve].
For the compound `O=C(CCc1ccc(S(=O)(=O)N2CCOCC2)cc1)N1CCN(Cc2ccc3c(c2)OCO3)CC1`, under setting [2], the AC50 was 10 µM [rising, single point].
Take `CC(C)Cc1cc(C(=O)Nc2sc3c(c2C#N)CCCC3)no1`: under setting [2], the AC50 was 0.562 µM [rising, single point].
For the compound `Cc1c(Cl)cccc1NC(=S)NCC1COc2ccccc2O1` (stereo not given), under setting [1], the AC50 was 12.6 µM [falling, partial curve].
Take `COCC(C)n1c(C)cc(C(=O)COC(=O)c2c(C)nn(-c3ccccc3)c2C)c1C` (stereo not given): the concentration at half-maximal activity (AC50) under setting [1] was 20 µM [rising, single point] and the AC50 under setting [2] is 35.5 µM [rising, single point].
In the case of `CCCNc1nc2c(c(=O)[nH]c(=O)n2C)n1Cc1cccc(Br)c1`, the concentration at half-maximal activity (AC50) reads like this: under setting [1], 35.5 µM [rising, single point]; under setting [2], 35.5 µM [rising, single point].
On to `COCCn1nnnc1C(c1cccs1)N1CCN(c2nc3ccccc3s2)CC1` (stereo not given), for which the AC50 under setting [2] is 35.5 µM [rising, single point].
On the same count and under the same terms, under `COCCNC(=S)N(c1ccccc1)C(C)C` stands 0.891 µM [rising, full curve].
`Cc1ccc(C(=O)NNC(=O)c2cccs2)cc1`: the AC50 under setting [1] is 0.398 µM [rising, full curve, poor fit].
As to `CCOC(=O)Cn1c(CN(Cc2ccccc2)Cc2ccccc2)nc2c1c(=O)n(C)c(=O)n2C`, the AC50 is, setting by setting: under setting [1], 17.8 µM [rising, single point]; under setting [2], 15.8 µM [rising, single point].
For `CC1(C)COC(/C=C/c2ccc([N+](=O)[O-])cc2)=N1`, the AC50 under setting [1] was 7.94 µM [falling, single point] and the AC50 under setting [2] was 5.62 µM [rising, single point].
Turning to `COc1c(C)cc(C(=O)C2CCCN(Cc3ccc(Oc4ncccn4)cc3)C2)cc1C` (stereo not given), the half-maximal activity concentration (AC50) under setting [1] is 0.282 µM [falling, full curve, poor fit].
With `O=C(c1ccc(Cl)c(Cl)c1)N1CCC(=O)N(C(COCc2ccccc2)Cc2ccccc2)CC1` (stereo not given), under setting [2], the AC50 is 35.5 µM [rising, single point].
With `Cc1cc(C)nc(-n2nc(C)c3c(C(F)(F)F)cc(=O)[nH]c32)n1`, the AC50 under setting [1] is 6.31 µM [rising, single point] and the AC50 under setting [2] is 6.31 µM [rising, single point].
As to `Cc1ccc(Nc2nnc(SCC(=O)Nc3cccc(S(=O)(=O)NC4=NCCCCC4)c3)s2)cc1`, the half-maximal activity concentration (AC50) under setting [2] was 31.6 µM [rising, single point].
In the case of `Cc1cccc(-c2noc(CNC(=O)Nc3ccc(F)cc3)n2)c1`, the AC50 was 0.282 µM [falling, partial curve] under setting [1] and 0.00891 µM [falling, full curve, poor fit] under setting [2].
Turning to `CC(Oc1ccc(Cl)cc1)c1ccnn1S(=O)(=O)c1ccc(Cl)cc1` (stereo not given), the AC50 under setting [2] is 35.5 µM [rising, single point].
Take `Cc1c(C(N)=O)cc([N+](=O)[O-])cc1[N+](=O)[O-]`: the AC50 under setting [1] was 15.8 µM [falling, single point] and the AC50 under setting [2] was 0.158 µM [rising, full curve, poor fit].
On to `CS(=O)(=O)c1ccc2nc(NC(=O)Nc3cccc(Cl)c3)sc2c1`, for which the AC50 is, setting by setting: under setting [1], 11.2 µM [falling, partial curve]; under setting [2], 11.2 µM [falling, partial curve].
For `CCOc1ccccc1CNc1ncnc2c1nc1n2CCCC1`, the AC50 under setting [1] was 35.5 µM [falling, single point] and the AC50 under setting [2] was 11.2 µM [rising, partial curve].
As to `O=C(C1CCCN(S(=O)(=O)c2cccc3nonc23)C1)N1CCN(c2cccc(Cl)c2)CC1` (stereo not given), the half-maximal activity concentration (AC50) under setting [2] was 11.2 µM [rising, partial curve].
`O=C(Cc1cccs1)Nc1nc2ccccc2s1`: the concentration at half-maximal activity (AC50) by setting is: under setting [1], 17.8 µM [rising, partial curve, poor fit]; under setting [2], 15.8 µM [rising, partial curve].
On to `Cc1cccc(CNc2nc(-c3cccc(NS(C)(=O)=O)c3)nc3ccccc23)c1`, for which the concentration at half-maximal activity (AC50) is, setting by setting: under setting [1], 35.5 µM [falling, single point]; under setting [2], 35.5 µM [falling, single point].
On to `O=C(/C=C/c1ccc(Cl)cc1)N1CCN(c2ccc([N+](=O)[O-])c(N3CCOCC3)c2)CC1`, for which, under setting [2], the half-maximal activity concentration (AC50) was 31.6 µM [rising, single point].
`COc1cccc(C(=O)/C=C/c2ccc(N3CCCCC3)c([N+](=O)[O-])c2)c1`: the half-maximal activity concentration (AC50) under setting [1] was 35.5 µM [falling, single point] and the AC50 under setting [2] was 35.5 µM [falling, single point].
As to `Cc1cc(C)c2c(c1)cc(C)c1nnc(SCC(=O)Nc3ccc(S(=O)(=O)N4CCCCC4)cc3)n12`, the AC50 is, setting by setting: under setting [1], 11.2 µM [rising, single point]; under setting [2], 17.8 µM [rising, partial curve].
Consider `CC(C)c1nc2cc3ccccc3cc2[nH]1`, for which the half-maximal activity concentration (AC50) by setting is: under setting [1], 11.2 µM [rising, partial curve]; under setting [2], 14.1 µM [rising, single point].
In the case of `CCOC(=O)c1cn(Cc2ccccc2)nn1`, the AC50 was 3.98 µM [falling, partial curve, poor fit] under setting [1] and 4.47 µM [falling, partial curve, poor fit] under setting [2].
As to `CCOc1ccc(CONS(=O)(=O)c2ccc(NC(C)=O)cc2)cc1Cl`, the AC50 is 1.78 µM [rising, full curve] under setting [1] and 12.6 µM [rising, partial curve] under setting [2].
In the case of `COc1ccccc1/C=C/C(=O)Nc1cccc(C(C)=O)c1`, under setting [1], the AC50 was 0.00562 µM [falling, full curve, poor fit].
For the compound `CCCCNC(=S)N/N=C1\CCCCc2ccccc21`, the concentration at half-maximal activity (AC50) under setting [2] was 35.5 µM [rising, single point].
With `CCN(CC)S(=O)(=O)c1ccc(N/N=C/c2ccc(OC)c(OC)c2OC)nc1`, the AC50 is, setting by setting: under setting [1], 3.98 µM [falling, full curve, poor fit]; under setting [2], 3.98 µM [falling, full curve, poor fit].
For the compound `COc1ccc(C2SCC(=O)N2c2nc3ccccc3s2)cc1` (stereo not given), the concentration at half-maximal activity (AC50) under setting [2] is 0.562 µM [falling, partial curve, poor fit].
For `C=CCN1CC2(c3ccccc3)CN(CC=C)CC(c3ccccc3)(C1)C2=O`, the AC50 is 0.0224 µM [rising, full curve, poor fit] under setting [1] and 0.0224 µM [rising, full curve, poor fit] under setting [2].
As to `Cc1ccc2[nH]c3c(c2c1)CCC3=O`, the half-maximal activity concentration (AC50) was 2 µM [falling, full curve] under setting [1] and 1.26 µM [falling, full curve] under setting [2].
For `COC(=O)C1=C(Nc2ccc(C)cc2)C=C(C)C(C(=O)OC)C1c1ccc(F)cc1` (stereo not given), the AC50 runs as follows: under setting [1], 35.5 µM [falling, single point]; under setting [2], 35.5 µM [falling, single point].
